# In PMC8715634:
# Results are given in words; binding and its absence hold for the method and conditions named. In cells and extracts the contact can be indirect. A result given as binding can be weak or reduced; the word gives no strength. Sequences can lack the tags named with a protein.
# Target: T1, BVES-myc (Blood Vessel Epicardial Substance) (human) (UniProt Q8NE79)
# T1 sequence: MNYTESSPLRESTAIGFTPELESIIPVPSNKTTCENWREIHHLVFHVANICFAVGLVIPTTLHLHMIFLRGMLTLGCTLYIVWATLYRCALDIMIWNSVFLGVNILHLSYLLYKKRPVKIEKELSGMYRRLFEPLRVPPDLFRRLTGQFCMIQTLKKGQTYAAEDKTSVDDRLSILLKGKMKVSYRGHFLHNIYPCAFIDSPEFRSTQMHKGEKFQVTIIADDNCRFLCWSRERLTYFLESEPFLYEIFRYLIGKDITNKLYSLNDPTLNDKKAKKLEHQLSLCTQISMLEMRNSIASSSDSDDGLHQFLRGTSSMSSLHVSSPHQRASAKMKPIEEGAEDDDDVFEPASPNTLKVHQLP
# Test: co-IP; mapping with truncation or deletion constructs of ANO5 and BVES; BVES-myc as bait for the ANO5 fragments; transfected cells (cell line not stated); RIPA lysis buffer, 4 °C
substance,measurement,value
N terminal fragment of ANO5 (domain or fragment),binding,binds
